Laboratory results from publication PMC3281842, “Crystal Structure of TDRD3 and Methyl-Arginine Binding Characterization of TDRD3, SMN and SPF30” (PLoS ONE, 2012).
Results are given in words; binding and its absence hold for the method and conditions named. For some of these results: Tags and fused reporters may be left off the sequences shown.

Chains of the proteins cited; added tags and fusions are not shown. Residues count along the entry.
UniProt Q16637, residues 80-170: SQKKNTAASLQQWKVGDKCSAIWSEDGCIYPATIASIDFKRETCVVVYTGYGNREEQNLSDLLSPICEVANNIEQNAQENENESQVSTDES
UniProt Q9H7E2, residues 520-633: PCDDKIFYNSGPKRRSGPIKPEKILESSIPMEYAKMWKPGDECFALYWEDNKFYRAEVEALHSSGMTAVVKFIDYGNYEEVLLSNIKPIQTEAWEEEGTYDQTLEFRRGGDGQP

What was measured:
[1] = molecular target: T1, Histone H3K9me2; assay: fluorescence polarisation; fluorescein-labeled peptides; 20 mM Tris pH 7.5, 50 mM NaCl, 1 mM DTT, 0.01% Triton X-100; 25°C; one-site binding model; Kd the average of three independent measurements; both purified
T1 sequence (peptide, dimethyllysine at K9; fluorescein label (position not stated)): ARTKQTARKSTGGKA

[2] = molecular target: T2, Histone H3K4me1; assay: as above
T2 sequence (peptide, monomethyllysine at K4; fluorescein label (position not stated)): ARTKQTARKST

[3] = molecular target: T3, Histone H3K4me3; assay: as above
T3 sequence (peptide, trimethyllysine at K4; fluorescein label (position not stated)): ARTKQTARKST

[4] = molecular target: T4, Histone H3K9me3; assay: as above
T4 sequence (peptide, trimethyllysine at K9; fluorescein label (position not stated)): ARTKQTARKSTGGKA

[5] = molecular target: T5, Histone H3K4me2; assay: as above
T5 sequence (peptide, dimethyllysine at K4; fluorescein label (position not stated)): ARTKQTARKST

[6] = molecular target: T6, Histone H3K9me1; assay: as above
T6 sequence (peptide, monomethyllysine at K9; fluorescein label (position not stated)): ARTKQTARKSTGGKA

[7] = molecular target: T7, H4R3me2a; assay: ITC; 20 mM Tris pH 8.0, 200 mM NaCl; 25°C; one-site binding model; both purified
T7 sequence (peptide, asymmetric dimethylarginine at R3): SGRGKGGK

Measured: binding

SMN (aa 80–170) (from UniProt Q16637 80-170) (domain or fragment)
not listed: [7]
no binding: all other assays above

TDRD3 (aa 520–633) (from UniProt Q9H7E2 520-633) (domain or fragment)
no binding: all assays above
